Numbering of substitutions follows the chain as printed. Results are given in words; binding and its absence hold for the method and conditions named.
B1: mouse anti-human XCR1 antibody (11H2) (antibody, IgG2a, V domains shown)
VH: EVQLQQSGPVLVKPGASVKMSCKASGYTFTDYYVNWVKQSHGASLEWIGVSNPKNGDKSYNQKFKGKATLTVDKSSSTAYMELNSLTSEDSAVYYCARGLYYAGTYGYFDVWGTGTTVTVSS
VL: DIQMTQATSSLSASLGDRVTISCRASQDISNYLNWYQQKPDGTVKLLIYYTSRLHSGVPSRFRGSGSGTDFSLTISNLEQEDIATYFCQQGKTLPRTLGGGTKLEIK
B2: mouse anti-human XCR1 antibody (2H6) (antibody, IgG2b, V domains shown)
VH: QAYLQQSGAELVRPGASVKMSCKASGYTFSSHNMHWIKQTLRQGLEWIGAIYPGKGNTSYNQKFKGKATLTVDKSSSTAYMQLSSLTSEDSAVYFCARWGSVVGDWYFDVWGTGTTVTVSS
VL: DVVVTQTPLSLPVSLGDQASISCRSSQSLVHSNGNTYLHWYLQKPGQSPKLLIYRVSNRFSGVPDRFSGSGLGRDFTLKISRVEAEDLGVYFCSQSTFVPWTFGGGTKLEIK
B3: mouse anti-human XCR1 antibody (5G7) (antibody, IgG2b, V domains shown)
VH: B2 VH with S30T, M34L, I37V, L41P, E46Q, K55N, S59A, E89D
VL: DVVMTQTPLSLPVTLGNQASIFCRSSLGLVHRNGNTYLHWYLQKPGQSPKLLIYKVSHRFSGVPDRFSGSGSGTDFTLKISRVEAEDLGVYFCSQSTHVPWTFGGGTKLEIK
notes: also called 5G7 Mab; parent antibody 5G7

Molecular target: chimera receptor mmHm
Test: FACS on cells expressing the chimera

| binding | Binder |
| --- | --- |
| no binding | B1 |
| no binding | B2 |
| no binding | B3 |

Source: patent US20140193421A1 (EISAI R AND D MANAGEMENT, published 2014)
